{"source": "the supplement of paper PMC8728848", "assay_in_all_cases": "glycan array binding signal (z-score within array); higher = stronger binding", "conditions_in_all_cases": "glycan notation: IUPAC condensed, linker removed", "key": {"Fuc(a1-3)GlcNAc": {"molecular_target": "Fuc(a1-3)GlcNAc", "how_it_was_run": "(§1)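 The binding signal is a Z-score computed within each array and averaged over linkers. Arrays of the same protein sequence at different concentrations or buffers were also averaged together. Data originate from 3228 arrays in the Consortium for Functional Glycomics database, kept only where the protein sequence was available.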"}, "[1]": {"molecular_target": "Fuc(a1-3)[Gal(b1-4)]Glc6S", "how_it_was_run": "as §1"}, "[2]": {"molecular_target": "Fuc(a1-3)[Gal(b1-4)]GlcNAc", "how_it_was_run": "as §1"}, "[3]": {"molecular_target": "Fuc(a1-3)[Gal(b1-4)]GlcNAc(b1-2)Man", "how_it_was_run": "as §1"}, "[4]": {"molecular_target": "Fuc(a1-3)[Gal(b1-4)]GlcNAc(b1-2)Man(a1-3)[Fuc(a1-3)[Gal(b1-4)]GlcNAc(b1-2)Man(a1-6)]Man(b1-4)GlcNAc(b1-4)GlcNAc", "how_it_was_run": "as §1"}, "[5]": {"molecular_target": "Fuc(a1-3)[Gal(b1-4)]GlcNAc(b1-2)Man(a1-3)[Fuc(a1-3)[Gal(b1-4)]GlcNAc(b1-2)Man(a1-6)]Man(b1-4)GlcNAc(b1-4)[Fuc(a1-6)]GlcNAc", "how_it_was_run": "as §1"}, "[6]": {"molecular_target": "Fuc(a1-3)[Gal(b1-4)]GlcNAc(b1-3)Gal(b1-3)[Fuc(a1-4)]GlcNAc", "how_it_was_run": "as §1"}, "[7]": {"molecular_target": "Fuc(a1-3)[Gal(b1-4)]GlcNAc(b1-3)Gal(b1-4)[Fuc(a1-3)]GlcNAc", "how_it_was_run": "as §1"}, "[8]": {"molecular_target": "Fuc(a1-3)[Gal(b1-4)]GlcNAc(b1-3)Gal(b1-4)[Fuc(a1-3)]GlcNAc(b1-3)Gal(b1-4)[Fuc(a1-3)]GlcNAc", "how_it_was_run": "as §1"}, "[9]": {"molecular_target": "Fuc(a1-3)[Gal(b1-4)]GlcNAc(b1-3)GalNAc", "how_it_was_run": "as §1"}, "[10]": {"molecular_target": "Fuc(a1-3)[Gal(b1-4)]GlcNAc(b1-6)GalNAc", "how_it_was_run": "as §1"}, "[11]": {"molecular_target": "Fuc(a1-3)[Gal(b1-4)]GlcNAc(b1-6)[Gal(b1-3)GlcNAc(b1-3)]Gal(b1-4)Glc", "how_it_was_run": "as §1"}, "[12]": {"molecular_target": "Fuc(a1-3)[Gal(b1-4)]GlcNAc6S", "how_it_was_run": "as §1"}, "[13]": {"molecular_target": "Fuc(a1-3)[Gal3S(b1-4)]Glc", "how_it_was_run": "as §1"}, "[14]": {"molecular_target": "Fuc(a1-3)[Gal3S(b1-4)]GlcNAc", "how_it_was_run": "as §1"}, "[15]": {"molecular_target": "Fuc(a1-3)[Gal3S(b1-4)]GlcNAc6S", "how_it_was_run": "as §1"}, "[16]": {"molecular_target": "Fuc(a1-3)[GalNAc(b1-4)]GlcNAc", "how_it_was_run": "as §1"}, "[17]": {"molecular_target": "Fuc(a1-3)[GalNAc(b1-4)]GlcNAc6S", "how_it_was_run": "as §1"}, "Fuc(a1-4)GlcNAc": {"molecular_target": "Fuc(a1-4)GlcNAc", "how_it_was_run": "as §1"}, "Fuc(b1-3)GlcNAc": {"molecular_target": "Fuc(b1-3)GlcNAc", "how_it_was_run": "as §1"}, "Gal(a1-2)Gal": {"molecular_target": "Gal(a1-2)Gal", "how_it_was_run": "as §1"}, "Gal(a1-3)Gal": {"molecular_target": "Gal(a1-3)Gal", "how_it_was_run": "as §1"}, "Gal(a1-3)Gal(b1-3)GlcNAc": {"molecular_target": "Gal(a1-3)Gal(b1-3)GlcNAc", "how_it_was_run": "as §1"}, "[18]": {"molecular_target": "Gal(a1-3)Gal(b1-3)GlcNAc(b1-2)Man", "how_it_was_run": "as §1"}, "[19]": {"molecular_target": "Gal(a1-3)Gal(b1-3)GlcNAc(b1-2)Man(a1-3)[Gal(a1-3)Gal(b1-3)GlcNAc(b1-2)Man(a1-6)]Man(b1-4)GlcNAc(b1-4)GlcNAc", "how_it_was_run": "as §1"}, "[20]": {"molecular_target": "Gal(a1-3)Gal(b1-3)GlcNAc(b1-3)GalNAc", "how_it_was_run": "as §1"}, "[21]": {"molecular_target": "Gal(a1-3)Gal(b1-3)GlcNAc(b1-6)GalNAc", "how_it_was_run": "as §1"}, "[22]": {"molecular_target": "Gal(a1-3)Gal(b1-3)[Fuc(a1-4)]GlcNAc(b1-2)Man(a1-3)[Gal(a1-3)Gal(b1-3)[Fuc(a1-4)]GlcNAc(b1-2)Man(a1-6)]Man(b1-4)GlcNAc(b1-4)GlcNAc", "how_it_was_run": "as §1"}, "Gal(a1-3)Gal(b1-4)Glc": {"molecular_target": "Gal(a1-3)Gal(b1-4)Glc", "how_it_was_run": "as §1"}, "Gal(a1-3)Gal(b1-4)GlcNAc": {"molecular_target": "Gal(a1-3)Gal(b1-4)GlcNAc", "how_it_was_run": "as §1"}, "[23]": {"molecular_target": "Gal(a1-3)Gal(b1-4)GlcNAc(b1-2)Man", "how_it_was_run": "as §1"}, "[24]": {"molecular_target": "Gal(a1-3)Gal(b1-4)GlcNAc(b1-2)Man(a1-3)[Gal(a1-3)Gal(b1-4)GlcNAc(b1-2)Man(a1-6)]Man(b1-4)GlcNAc(b1-4)GlcNAc", "how_it_was_run": "as §1"}, "[25]": {"molecular_target": "Gal(a1-3)Gal(b1-4)GlcNAc(b1-3)GalNAc", "how_it_was_run": "as §1"}, "[26]": {"molecular_target": "Gal(a1-3)Gal(b1-4)GlcNAc(b1-6)GalNAc", "how_it_was_run": "as §1"}, "[27]": {"molecular_target": "Gal(a1-3)Gal(b1-4)[Fuc(a1-3)]GlcNAc", "how_it_was_run": "as §1"}, "[28]": {"molecular_target": "Gal(a1-3)Gal(b1-4)[Fuc(a1-3)]GlcNAc(b1-2)Man(a1-3)[Gal(a1-3)Gal(b1-4)[Fuc(a1-3)]GlcNAc(b1-2)Man(a1-6)]Man(b1-4)GlcNAc(b1-4)GlcNAc", "how_it_was_run": "as §1"}, "Gal(a1-3)GalNAc": {"molecular_target": "Gal(a1-3)GalNAc", "how_it_was_run": "as §1"}}, "note": "Some of the results follow."}
{"binder": "Thrombomodulin Lectin (Mus musculus) (protein) LSALAKLQPTGSQCVEHECFALFQGPATFLDASQACQRLQGHLMTVRSSVAADVISLLLSQSSMDLGPWIGLQLPQGCDDPVHLGPLRGFQWVTGDNHTSYSRWARPNDQTAPLCGPLCVTVSTATEAAPGEPAWEEKPCETETQGFLCEFYFTASCRVDPIPVREDTKEEEGAGEPPVSPTPGSPTGPPSARPVLDEPRVPITQNPCPPLKECPPCAAPDLEGGPSVFIFPPKIKDVLMISLSPMVTCVVVDVSEDDPDVQISWFVNNVEVHTAQTQTHREDYNSTLRVVSALPIQHQDWMSGKAFACAVNNRALPSPIEKTISKPRGPVRAPQVYVLPPPAEEMTKKEFSLTCMITGFLPAEIAVDWTSNGRTEQNYKNTATVLDSDGSYFMYSKLRVQKSTWERGSLFACSVVHEGLHNHLTTKTISRSLGK", "values": [{"measurement": "glycan array binding signal (z-score)", "setting": "Fuc(a1-3)GlcNAc", "value": -0.801}, {"measurement": "glycan array binding signal (z-score)", "setting": "[1]", "value": -0.024}, {"measurement": "glycan array binding signal (z-score)", "setting": "[2]", "value": -0.036}, {"measurement": "glycan array binding signal (z-score)", "setting": "[3]", "value": -1.06}, {"measurement": "glycan array binding signal (z-score)", "setting": "[4]", "value": -0.81}, {"measurement": "glycan array binding signal (z-score)", "setting": "[5]", "value": 0.391}, {"measurement": "glycan array binding signal (z-score)", "setting": "[6]", "value": -1.17}, {"measurement": "glycan array binding signal (z-score)", "setting": "[7]", "value": -0.871}, {"measurement": "glycan array binding signal (z-score)", "setting": "[8]", "value": 0.223}, {"measurement": "glycan array binding signal (z-score)", "setting": "[9]", "value": -0.437}, {"measurement": "glycan array binding signal (z-score)", "setting": "[10]", "value": -1.39}, {"measurement": "glycan array binding signal (z-score)", "setting": "[11]", "value": 0.613}, {"measurement": "glycan array binding signal (z-score)", "setting": "[12]", "value": 0.604}, {"measurement": "glycan array binding signal (z-score)", "setting": "[13]", "value": -0.048}, {"measurement": "glycan array binding signal (z-score)", "setting": "[14]", "value": -0.275}, {"measurement": "glycan array binding signal (z-score)", "setting": "[15]", "value": -2.09}, {"measurement": "glycan array binding signal (z-score)", "setting": "[16]", "value": 0.174}, {"measurement": "glycan array binding signal (z-score)", "setting": "[17]", "value": -0.379}, {"measurement": "glycan array binding signal (z-score)", "setting": "Fuc(a1-4)GlcNAc", "value": -0.618}, {"measurement": "glycan array binding signal (z-score)", "setting": "Fuc(b1-3)GlcNAc", "value": 0.263}, {"measurement": "glycan array binding signal (z-score)", "setting": "Gal(a1-2)Gal", "value": -0.433}, {"measurement": "glycan array binding signal (z-score)", "setting": "Gal(a1-3)Gal", "value": 1.79}, {"measurement": "glycan array binding signal (z-score)", "setting": "Gal(a1-3)Gal(b1-3)GlcNAc", "value": 0.029}, {"measurement": "glycan array binding signal (z-score)", "setting": "[18]", "value": -0.553}, {"measurement": "glycan array binding signal (z-score)", "setting": "[19]", "value": 0.4}, {"measurement": "glycan array binding signal (z-score)", "setting": "[20]", "value": -0.619}, {"measurement": "glycan array binding signal (z-score)", "setting": "[21]", "value": 0.696}, {"measurement": "glycan array binding signal (z-score)", "setting": "[22]", "value": 1.1}, {"measurement": "glycan array binding signal (z-score)", "setting": "Gal(a1-3)Gal(b1-4)Glc", "value": 0.642}, {"measurement": "glycan array binding signal (z-score)", "setting": "Gal(a1-3)Gal(b1-4)GlcNAc", "value": 1.5}, {"measurement": "glycan array binding signal (z-score)", "setting": "[23]", "value": -1.07}, {"measurement": "glycan array binding signal (z-score)", "setting": "[24]", "value": 0.517}, {"measurement": "glycan array binding signal (z-score)", "setting": "[25]", "value": -1.6}, {"measurement": "glycan array binding signal (z-score)", "setting": "[26]", "value": 0.246}, {"measurement": "glycan array binding signal (z-score)", "setting": "[27]", "value": -1.68}, {"measurement": "glycan array binding signal (z-score)", "setting": "[28]", "value": 1.12}, {"measurement": "glycan array binding signal (z-score)", "setting": "Gal(a1-3)GalNAc", "value": -0.598}]}
